Source: US9586891B2, “Estrogen receptor ligands” (Karo Pharma AB, priority 2011, dated 2017)
Some entries share one result that the patent states for a list of compounds.

Protein sequences, listed by entry. Tags and fused reporters are not part of them. Residues count along the entry.
UniProt Q92731, 255-530: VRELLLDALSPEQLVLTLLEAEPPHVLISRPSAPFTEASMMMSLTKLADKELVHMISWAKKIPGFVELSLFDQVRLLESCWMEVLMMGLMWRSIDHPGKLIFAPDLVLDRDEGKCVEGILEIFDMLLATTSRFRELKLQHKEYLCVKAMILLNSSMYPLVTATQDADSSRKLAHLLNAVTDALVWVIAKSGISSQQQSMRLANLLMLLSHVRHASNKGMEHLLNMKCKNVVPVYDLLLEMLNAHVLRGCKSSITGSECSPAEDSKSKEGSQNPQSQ

Molecular target: T1, human ERβ ligand binding domain (Homo sapiens, UniProt Q92731)
T1 construct: ERβ (ERβ-LBD, pET-N-AT #1, aa 255-530); biotinylation tag (biotinylated in vivo, pBirA); made in house; host or cells: E. coli BL21 (DE3) pBirA; crude extract supernatant
Assay: Binding assays 1 and 2: estrogen receptor binding assay (SPA with 3H-E2; LanthaScreen TR-FRET competitive binding)
Details: in the binding assays 1 and 2

5′′,6′-difluoro-4-dihydroxy-2′′-methyl-5′-propyl-[1,1′:2′,1′′-terphenyl]-3′-carboxamide [Example 91]
selectivity for the estrogen receptor β-subtype over the estrogen receptor α-subtype: ≥ 20
